Assay results reported in article doi:10.1101/2025.05.04.652107.

Biological target: T1, Sialin/Sialin2 (NRK cells) (rat (endogenous in NRK-52E)) (UniProt Q5Q0U0)
T1 sequence: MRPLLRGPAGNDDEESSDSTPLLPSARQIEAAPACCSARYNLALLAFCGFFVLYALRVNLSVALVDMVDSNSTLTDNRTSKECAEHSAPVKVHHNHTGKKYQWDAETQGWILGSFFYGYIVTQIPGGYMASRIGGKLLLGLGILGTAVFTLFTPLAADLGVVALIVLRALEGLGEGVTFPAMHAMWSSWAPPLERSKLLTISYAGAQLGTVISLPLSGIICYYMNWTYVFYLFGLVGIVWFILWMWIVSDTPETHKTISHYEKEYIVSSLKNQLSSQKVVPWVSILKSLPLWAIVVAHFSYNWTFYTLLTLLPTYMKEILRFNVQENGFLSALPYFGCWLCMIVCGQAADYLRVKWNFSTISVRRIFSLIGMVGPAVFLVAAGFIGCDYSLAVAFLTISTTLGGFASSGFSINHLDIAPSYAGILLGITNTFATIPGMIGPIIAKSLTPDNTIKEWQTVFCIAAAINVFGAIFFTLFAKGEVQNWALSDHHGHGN
Assay: proximity ligation

Question: Which binding does the source give for “epidermal growth factor receptor (EGFR) (NRK cells) (rat (endogenous in NRK-52E))” here?
Answer: The binding was “binds”.

Results are given in words; binding and its absence hold for the method and conditions named. In cells and extracts the contact can be indirect. Binding can be weak; no strength is given.
